The source of these data is paper PMC4721547, “Cyclophilin40 isomerase activity is regulated by a temperature-dependent allosteric interaction with Hsp90” (Bioscience Reports, 2015).

By UniProt entry, the sequences of proteins in these tests, tags left out.
UniProt Q08752: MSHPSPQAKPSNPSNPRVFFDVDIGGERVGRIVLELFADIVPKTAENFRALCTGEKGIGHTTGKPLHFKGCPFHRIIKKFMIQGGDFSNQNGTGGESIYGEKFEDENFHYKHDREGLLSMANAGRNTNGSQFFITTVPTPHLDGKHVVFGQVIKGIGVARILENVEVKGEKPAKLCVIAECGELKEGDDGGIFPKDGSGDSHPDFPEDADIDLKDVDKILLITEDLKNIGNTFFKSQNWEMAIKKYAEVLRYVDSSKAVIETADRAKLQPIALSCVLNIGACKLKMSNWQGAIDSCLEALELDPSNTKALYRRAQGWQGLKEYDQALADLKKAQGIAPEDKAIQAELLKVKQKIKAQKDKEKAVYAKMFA

Results are given in words; binding and its absence hold for the method and conditions named. Some results given as binding are weak or reduced against the parent protein; the word gives no strength.

Test [1] addresses Cyclophilin 40 (human; pDEST14-6H-TEV-hCyp40) (human) (UniProt Q08752). Briefly: thermal denaturation fluorescence; 2 uM Cyp40 apo, with 250 uM SRMEEVD, with 4 uM CsA, or with both; 50 mM Hepes pH 8, 100 mM sodium chloride, 1 mM DTT; 25-70 °C; both purified.
The target is the same in test [2]. Description: intrinsic tryptophan fluorescence; 1 uM Cyp40 apo and after addition of 250 uM SRMEEVD; 15-45 °C at 5 °C intervals; 50 mM Hepes pH 8, 100 mM sodium chloride, 1 mM DTT; excitation 295 nm, emission 310-400 nm; both purified.

Turning to SRMEEVD (also called Hsp90 peptide; Hsp90 wt) [SRMEEVD peptide (Hsp90 wild-type C-terminal peptide)], the binding entry in test [1] and in test [2] was “binds” each time.
